Reference: the M2OR odorant receptor database
The list shows a part of the results, in another mix than the full data. The calls were merged from several studies; some rest on single wells. The list shows a part of the results.

Amino acid sequences for entries named in this document (tags omitted). A change or cut given only in a name is not applied to a line headed by its entry.
UniProt Q9H342: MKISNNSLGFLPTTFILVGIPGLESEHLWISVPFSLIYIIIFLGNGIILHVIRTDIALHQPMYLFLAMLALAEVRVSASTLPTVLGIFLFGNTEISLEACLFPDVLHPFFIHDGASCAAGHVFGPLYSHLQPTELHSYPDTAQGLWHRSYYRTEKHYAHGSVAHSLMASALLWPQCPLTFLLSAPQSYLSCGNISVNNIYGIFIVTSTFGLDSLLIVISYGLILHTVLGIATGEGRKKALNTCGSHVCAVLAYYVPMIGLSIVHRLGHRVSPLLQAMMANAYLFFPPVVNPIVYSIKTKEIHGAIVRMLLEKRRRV
UniProt Q9H2C8: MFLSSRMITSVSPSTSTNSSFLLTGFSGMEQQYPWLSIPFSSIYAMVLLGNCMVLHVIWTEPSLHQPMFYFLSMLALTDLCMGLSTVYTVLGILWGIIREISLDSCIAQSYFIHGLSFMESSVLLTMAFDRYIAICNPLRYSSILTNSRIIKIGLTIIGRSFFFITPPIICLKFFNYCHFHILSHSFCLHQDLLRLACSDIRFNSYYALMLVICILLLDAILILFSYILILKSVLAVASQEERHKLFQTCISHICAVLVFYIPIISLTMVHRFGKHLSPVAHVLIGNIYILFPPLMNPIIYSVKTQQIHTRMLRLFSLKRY
UniProt Q8NGJ4: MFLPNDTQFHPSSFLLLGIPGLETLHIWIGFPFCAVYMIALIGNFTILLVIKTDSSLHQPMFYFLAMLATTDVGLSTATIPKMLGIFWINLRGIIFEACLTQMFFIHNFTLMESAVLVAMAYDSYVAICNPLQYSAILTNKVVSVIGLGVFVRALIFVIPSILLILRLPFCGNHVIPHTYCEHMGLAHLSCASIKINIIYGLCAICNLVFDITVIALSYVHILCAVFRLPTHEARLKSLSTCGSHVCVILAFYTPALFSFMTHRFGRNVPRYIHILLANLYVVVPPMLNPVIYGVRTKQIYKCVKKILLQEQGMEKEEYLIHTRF
UniProt Q8NGH9: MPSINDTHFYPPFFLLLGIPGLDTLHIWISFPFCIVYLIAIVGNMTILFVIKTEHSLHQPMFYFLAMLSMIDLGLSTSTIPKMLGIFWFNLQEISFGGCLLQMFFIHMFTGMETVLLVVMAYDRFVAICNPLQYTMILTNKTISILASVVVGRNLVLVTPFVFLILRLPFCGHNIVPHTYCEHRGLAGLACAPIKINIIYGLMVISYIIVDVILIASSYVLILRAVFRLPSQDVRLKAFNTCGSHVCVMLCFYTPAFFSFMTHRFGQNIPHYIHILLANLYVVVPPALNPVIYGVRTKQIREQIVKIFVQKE
UniProt Q8NH55: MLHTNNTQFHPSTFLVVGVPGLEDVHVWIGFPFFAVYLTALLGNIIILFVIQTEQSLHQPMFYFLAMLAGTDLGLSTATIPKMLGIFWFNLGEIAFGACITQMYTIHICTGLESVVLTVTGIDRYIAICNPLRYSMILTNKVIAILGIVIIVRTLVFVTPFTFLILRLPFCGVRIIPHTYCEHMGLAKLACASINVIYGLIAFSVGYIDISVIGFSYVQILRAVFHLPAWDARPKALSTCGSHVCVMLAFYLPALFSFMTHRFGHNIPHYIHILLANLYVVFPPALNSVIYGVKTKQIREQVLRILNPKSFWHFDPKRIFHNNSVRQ

Assays:
Conditions in all cases: stereoisomer not certain
OR51I1 (Homo sapiens) = target: T1, OR51I1 (Homo sapiens) (UniProt Q9H343)
T1 sequence (whole entry): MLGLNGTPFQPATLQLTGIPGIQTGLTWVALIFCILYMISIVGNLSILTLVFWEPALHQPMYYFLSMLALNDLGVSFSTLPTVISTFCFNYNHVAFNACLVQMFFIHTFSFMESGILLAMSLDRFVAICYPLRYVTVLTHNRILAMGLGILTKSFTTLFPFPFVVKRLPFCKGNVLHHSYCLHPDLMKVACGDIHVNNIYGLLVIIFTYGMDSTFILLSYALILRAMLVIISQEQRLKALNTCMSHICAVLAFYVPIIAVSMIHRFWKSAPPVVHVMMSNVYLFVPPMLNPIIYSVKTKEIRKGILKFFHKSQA
Method in brief: (§1)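 Whether a receptor–molecule pair is responsive (active) rests on the original authors' judgment that its measured signal was statistically different from baseline. Pairs without that judgment are non-responsive (inactive). Sources used varied assay methods, commonly transient luciferase assays in mammalian cell lines.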

OR51I2 (Homo sapiens) = target: T2, OR51I2 (Homo sapiens) (UniProt Q9H344)
T2 sequence (whole entry): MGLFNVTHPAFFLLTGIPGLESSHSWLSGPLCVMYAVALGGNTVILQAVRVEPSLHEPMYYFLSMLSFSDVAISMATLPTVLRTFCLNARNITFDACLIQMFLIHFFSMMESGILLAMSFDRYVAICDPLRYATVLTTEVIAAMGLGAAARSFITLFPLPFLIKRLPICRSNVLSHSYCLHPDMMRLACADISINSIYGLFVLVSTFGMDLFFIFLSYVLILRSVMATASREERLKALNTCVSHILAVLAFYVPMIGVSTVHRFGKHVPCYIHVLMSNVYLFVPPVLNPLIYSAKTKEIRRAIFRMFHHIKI
Method in brief: as §1

OR51L1 (Homo sapiens) = target: T3, OR51L1 (Homo sapiens) (UniProt Q8NGJ5)
T3 sequence (whole entry): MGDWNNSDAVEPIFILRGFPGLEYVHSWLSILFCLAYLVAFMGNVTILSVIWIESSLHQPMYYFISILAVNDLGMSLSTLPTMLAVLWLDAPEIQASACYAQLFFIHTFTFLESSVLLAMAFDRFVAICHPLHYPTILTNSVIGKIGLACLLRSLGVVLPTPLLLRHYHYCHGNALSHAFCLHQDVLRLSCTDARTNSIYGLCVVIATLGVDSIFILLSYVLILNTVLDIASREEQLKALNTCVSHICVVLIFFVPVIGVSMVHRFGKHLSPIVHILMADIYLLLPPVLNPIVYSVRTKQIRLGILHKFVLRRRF
Method in brief: as §1

OR51S1 (Homo sapiens) = target: T4, OR51S1 (Homo sapiens) (UniProt Q8NGJ8)
T4 sequence (whole entry): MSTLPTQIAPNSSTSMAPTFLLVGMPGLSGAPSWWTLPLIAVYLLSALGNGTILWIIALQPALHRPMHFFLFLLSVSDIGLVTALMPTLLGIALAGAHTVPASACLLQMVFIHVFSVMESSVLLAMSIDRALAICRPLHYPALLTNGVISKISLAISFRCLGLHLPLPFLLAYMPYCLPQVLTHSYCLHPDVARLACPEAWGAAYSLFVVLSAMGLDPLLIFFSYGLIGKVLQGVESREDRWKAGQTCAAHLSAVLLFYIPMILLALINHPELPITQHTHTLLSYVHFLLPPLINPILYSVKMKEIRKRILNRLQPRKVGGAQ
Method in brief: as §1

OR52A4P (Homo sapiens) = target: T5, OR52A4P (Homo sapiens) (UniProt A6NMU1)
T5 sequence (whole entry): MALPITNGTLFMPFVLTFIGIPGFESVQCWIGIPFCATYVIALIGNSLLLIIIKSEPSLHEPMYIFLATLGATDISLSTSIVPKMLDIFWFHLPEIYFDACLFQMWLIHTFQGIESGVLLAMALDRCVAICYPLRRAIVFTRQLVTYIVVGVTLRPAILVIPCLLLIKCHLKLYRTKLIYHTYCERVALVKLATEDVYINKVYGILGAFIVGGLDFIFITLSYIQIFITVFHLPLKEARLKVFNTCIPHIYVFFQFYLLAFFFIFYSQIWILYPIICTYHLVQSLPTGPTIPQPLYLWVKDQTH
Method in brief: as §1

OR52A5 (Homo sapiens) = target: T6, OR52A5 (Homo sapiens) (UniProt Q9H2C5)
T6 sequence (whole entry): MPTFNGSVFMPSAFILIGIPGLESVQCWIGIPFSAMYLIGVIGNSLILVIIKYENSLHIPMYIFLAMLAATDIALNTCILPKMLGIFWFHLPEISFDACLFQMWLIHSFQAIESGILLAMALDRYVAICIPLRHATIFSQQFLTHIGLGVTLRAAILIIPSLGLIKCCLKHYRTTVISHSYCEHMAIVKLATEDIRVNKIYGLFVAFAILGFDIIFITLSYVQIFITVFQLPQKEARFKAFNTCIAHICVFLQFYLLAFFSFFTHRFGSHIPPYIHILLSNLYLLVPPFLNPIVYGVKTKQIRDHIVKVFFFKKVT
Method in brief: as §1

OR52B4 (Homo sapiens) = target: T7, OR52B4 (Homo sapiens) (UniProt Q8NGK2)
T7 sequence (whole entry): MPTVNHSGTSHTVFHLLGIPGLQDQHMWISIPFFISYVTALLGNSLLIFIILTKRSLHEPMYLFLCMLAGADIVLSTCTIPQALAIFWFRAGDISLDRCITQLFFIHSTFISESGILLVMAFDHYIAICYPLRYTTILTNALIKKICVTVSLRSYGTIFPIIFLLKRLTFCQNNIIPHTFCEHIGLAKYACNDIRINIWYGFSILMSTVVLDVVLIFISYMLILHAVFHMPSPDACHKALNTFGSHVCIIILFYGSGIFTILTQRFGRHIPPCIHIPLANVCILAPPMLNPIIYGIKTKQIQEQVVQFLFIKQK
Method in brief: as §1

OR52D1 (Homo sapiens) = target: T8, OR52D1 (Homo sapiens) (UniProt Q9H346)
T8 sequence (whole entry): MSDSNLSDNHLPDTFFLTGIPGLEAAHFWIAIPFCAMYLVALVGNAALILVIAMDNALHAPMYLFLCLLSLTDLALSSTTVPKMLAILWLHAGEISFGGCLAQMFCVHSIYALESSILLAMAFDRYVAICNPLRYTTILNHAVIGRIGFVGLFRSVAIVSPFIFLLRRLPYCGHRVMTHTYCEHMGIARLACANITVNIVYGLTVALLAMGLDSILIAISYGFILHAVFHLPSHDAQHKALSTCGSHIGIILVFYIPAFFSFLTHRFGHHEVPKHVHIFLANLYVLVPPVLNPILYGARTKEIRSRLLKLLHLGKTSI
Method in brief: as §1

OR51J1 (Homo sapiens) = OR51J1 (Homo sapiens) (UniProt Q9H342)
Method in brief: as §1

OR51M1 (Homo sapiens) = target: T9, OR51M1 (Homo sapiens) (UniProt Q9H341)
T9 sequence (whole entry): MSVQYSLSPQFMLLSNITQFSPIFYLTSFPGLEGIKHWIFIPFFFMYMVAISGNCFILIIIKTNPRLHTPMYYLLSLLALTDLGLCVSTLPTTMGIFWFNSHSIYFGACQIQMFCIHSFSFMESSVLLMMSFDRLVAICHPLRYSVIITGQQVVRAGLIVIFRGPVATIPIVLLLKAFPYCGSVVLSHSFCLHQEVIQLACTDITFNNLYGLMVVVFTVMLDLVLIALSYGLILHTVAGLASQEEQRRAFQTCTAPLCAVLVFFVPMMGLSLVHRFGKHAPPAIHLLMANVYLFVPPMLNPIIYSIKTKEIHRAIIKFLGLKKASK
Method in brief: as §1

OR51Q1 (Homo sapiens) = target: T10, OR51Q1 (Homo sapiens) (UniProt Q8NH59)
T10 sequence (whole entry): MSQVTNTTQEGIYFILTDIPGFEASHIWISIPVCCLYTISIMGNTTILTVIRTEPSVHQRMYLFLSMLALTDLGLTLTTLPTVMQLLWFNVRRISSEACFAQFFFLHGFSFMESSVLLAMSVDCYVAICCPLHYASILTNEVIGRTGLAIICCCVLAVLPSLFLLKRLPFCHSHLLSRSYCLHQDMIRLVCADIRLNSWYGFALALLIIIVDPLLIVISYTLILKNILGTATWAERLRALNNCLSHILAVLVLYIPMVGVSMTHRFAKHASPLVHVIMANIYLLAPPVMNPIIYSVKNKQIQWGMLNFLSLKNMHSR
Method in brief: as §1

OR51T1 (Homo sapiens) = target: T11, OR51T1 (Homo sapiens) (UniProt Q8NGJ9)
T11 sequence (whole entry): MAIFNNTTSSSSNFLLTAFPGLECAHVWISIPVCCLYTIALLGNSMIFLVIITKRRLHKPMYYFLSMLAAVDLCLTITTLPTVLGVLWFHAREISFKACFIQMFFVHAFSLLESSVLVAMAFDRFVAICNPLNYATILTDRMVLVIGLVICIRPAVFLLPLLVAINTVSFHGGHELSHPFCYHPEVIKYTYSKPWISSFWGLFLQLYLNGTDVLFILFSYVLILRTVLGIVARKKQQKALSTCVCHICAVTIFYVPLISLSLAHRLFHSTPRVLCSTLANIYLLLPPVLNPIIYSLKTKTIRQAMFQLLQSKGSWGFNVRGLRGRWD
Method in brief: as §1

OR51V1 (Homo sapiens) = OR51V1 (Homo sapiens) (UniProt Q9H2C8)
Method in brief: as §1

OR52A1 (Homo sapiens) = target: T12, OR52A1 (Homo sapiens) (UniProt Q9UKL2)
T12 sequence (whole entry): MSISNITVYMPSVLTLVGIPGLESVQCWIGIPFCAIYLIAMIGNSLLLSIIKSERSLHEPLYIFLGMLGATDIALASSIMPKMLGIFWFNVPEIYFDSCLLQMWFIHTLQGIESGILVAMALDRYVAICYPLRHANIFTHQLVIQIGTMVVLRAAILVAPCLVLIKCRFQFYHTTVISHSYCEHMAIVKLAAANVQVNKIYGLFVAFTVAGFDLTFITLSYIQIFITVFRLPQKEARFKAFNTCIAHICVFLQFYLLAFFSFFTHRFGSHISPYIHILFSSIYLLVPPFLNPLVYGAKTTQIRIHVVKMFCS
Method in brief: as §1

OR52B2 (Homo sapiens) = target: T13, OR52B2 (Homo sapiens) (UniProt Q96RD2)
T13 sequence (whole entry): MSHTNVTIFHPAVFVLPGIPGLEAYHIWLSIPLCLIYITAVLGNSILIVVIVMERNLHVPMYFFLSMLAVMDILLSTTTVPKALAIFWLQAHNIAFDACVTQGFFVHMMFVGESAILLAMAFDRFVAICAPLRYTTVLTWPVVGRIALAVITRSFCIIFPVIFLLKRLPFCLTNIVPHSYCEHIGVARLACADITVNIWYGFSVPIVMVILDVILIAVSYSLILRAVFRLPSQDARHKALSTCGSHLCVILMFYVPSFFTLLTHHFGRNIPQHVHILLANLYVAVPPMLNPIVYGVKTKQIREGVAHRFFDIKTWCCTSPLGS
Method in brief: as §1

OR52B6 (Homo sapiens) = target: T14, OR52B6 (Homo sapiens) (UniProt Q8NGF0)
T14 sequence (whole entry): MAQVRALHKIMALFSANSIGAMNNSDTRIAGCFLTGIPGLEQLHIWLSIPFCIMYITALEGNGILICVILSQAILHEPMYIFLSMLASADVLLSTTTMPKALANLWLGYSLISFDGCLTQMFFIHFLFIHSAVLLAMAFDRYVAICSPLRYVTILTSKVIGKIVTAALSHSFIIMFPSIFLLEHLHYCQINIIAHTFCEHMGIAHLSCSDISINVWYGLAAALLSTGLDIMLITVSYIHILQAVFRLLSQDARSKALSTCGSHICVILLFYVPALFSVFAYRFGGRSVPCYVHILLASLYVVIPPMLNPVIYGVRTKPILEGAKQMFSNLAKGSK
Method in brief: as §1

OR52E2 (Homo sapiens) = OR52E2 (Homo sapiens) (UniProt Q8NGJ4)
Method in brief: as §1

OR52E4 (Homo sapiens) = OR52E4 (Homo sapiens) (UniProt Q8NGH9)
Method in brief: as §1

OR52E5 (Homo sapiens) = OR52E5 (Homo sapiens) (UniProt Q8NH55)
Method in brief: as §1

Measured: odorant receptor agonist call;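 note: active if original authors judged signal statistically different from baseline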

CC(C)CCC(=O)O
inactive: OR51I1 (Homo sapiens) | OR51I2 (Homo sapiens) | OR51S1 (Homo sapiens) | OR52A4P (Homo sapiens) | OR52A5 (Homo sapiens) | OR52B4 (Homo sapiens) | OR52D1 (Homo sapiens)
active: OR51L1 (Homo sapiens)

CCCC(=O)O
inactive: OR51I1 (Homo sapiens) | OR51I2 (Homo sapiens) | OR51J1 (Homo sapiens) | OR51L1 (Homo sapiens) | OR51M1 (Homo sapiens) | OR51Q1 (Homo sapiens) | OR51T1 (Homo sapiens) | OR51V1 (Homo sapiens) | OR52A1 (Homo sapiens) | OR52A4P (Homo sapiens) | OR52A5 (Homo sapiens) | OR52B2 (Homo sapiens) | OR52B4 (Homo sapiens) | OR52B6 (Homo sapiens) | OR52E2 (Homo sapiens) | OR52E4 (Homo sapiens) | OR52E5 (Homo sapiens)

COc1cc(C)ccc1O
inactive: OR51I1 (Homo sapiens) | OR51I2 (Homo sapiens) | OR51L1 (Homo sapiens) | OR51S1 (Homo sapiens) | OR52A4P (Homo sapiens) | OR52A5 (Homo sapiens) | OR52B4 (Homo sapiens) | OR52D1 (Homo sapiens)
